Reference: article PMC10814688
No constants are given. Whether binding was seen depends on the method and setting. Binding seen in cells or lysates may run through a third protein. Some binding calls cover weakened binding; strength is not graded here.

Chains of the proteins cited; added tags and fusions are not shown.
UniProt Q8BWG8: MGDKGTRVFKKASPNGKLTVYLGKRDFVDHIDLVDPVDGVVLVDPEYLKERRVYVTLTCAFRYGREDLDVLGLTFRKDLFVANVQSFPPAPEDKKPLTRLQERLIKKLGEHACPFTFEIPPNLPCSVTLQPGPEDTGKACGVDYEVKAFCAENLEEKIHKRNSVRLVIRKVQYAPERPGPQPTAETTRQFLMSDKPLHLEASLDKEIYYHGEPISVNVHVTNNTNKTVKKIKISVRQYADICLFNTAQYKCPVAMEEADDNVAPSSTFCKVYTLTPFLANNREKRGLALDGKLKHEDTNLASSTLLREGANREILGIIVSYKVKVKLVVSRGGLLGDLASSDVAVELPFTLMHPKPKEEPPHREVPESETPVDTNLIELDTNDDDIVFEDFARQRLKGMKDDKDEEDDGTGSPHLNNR
UniProt P33766: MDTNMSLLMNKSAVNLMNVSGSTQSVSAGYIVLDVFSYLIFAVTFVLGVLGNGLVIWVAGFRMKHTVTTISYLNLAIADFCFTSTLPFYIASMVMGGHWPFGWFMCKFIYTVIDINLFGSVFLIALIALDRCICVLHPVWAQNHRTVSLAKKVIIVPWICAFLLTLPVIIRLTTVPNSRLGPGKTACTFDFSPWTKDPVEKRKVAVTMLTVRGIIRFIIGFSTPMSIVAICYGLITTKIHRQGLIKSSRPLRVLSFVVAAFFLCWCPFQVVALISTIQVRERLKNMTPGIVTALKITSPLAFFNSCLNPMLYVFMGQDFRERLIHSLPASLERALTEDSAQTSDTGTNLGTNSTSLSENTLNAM

Columns and labels:
[1] = biological target: β-arrestin-1 (BAR1) (mouse (endogenous in MPC-5 podocytes)) (UniProt Q8BWG8); experiment: co-IP; lysates of differentiated MPC-5 podocytes, untreated or treated for 24 h with 10 ng/mL recombinant suPAR, precipitated with an antibody against BAR1 or IgG; immunoblot for αV-integrin or β3-integrin
[2] = biological target: mouse formyl peptide receptor-1 (Fpr1) (mouse (endogenous in MPC-5 podocytes)) (UniProt P33766); experiment: co-IP; lysates of untreated differentiated MPC-5 podocytes precipitated with an antibody against FPR1 (GeneTex) or rabbit IgG; immunoblot for β3-integrin

binding [1]: no binding
binding [2]: binds
B1: β3-integrin (receptor, UniProt O54890 26-787)
chain: ESNICTTRGVNSCQQCLAVSPVCAWCSDETLSQGSPRCNLKENLLKDNCAPESIEFPVSEAQILEARPLSSKGSGSSAQITQVSPQRIALRLRPDDSKIFSLQVRQVEDYPVDIYYLMDLSFSMKDDLSSIQTLGTKLASQMRKLTSNLRIGFGAFVDKPVSPYMYISPPQAIKNPCYNMKNACLPMFGYKHVLTLTDQVSRFNEEVKKQSVSRNRDAPEGGFDAIMQATVCDEKIGWRNDASHLLVFTTDAKTHIALDGRLAGIVLPNDGHCHIGTDNHYSASTTMDYPSLGLMTEKLSQKNINLIFAVTENVVSLYQNYSELIPGTTVGVLSDDSSNVLQLIVDAYGKIRSKVELEVRDLPEELSLSFNATCLNNEVIPGLKSCVGLKIGDTVSFSIEAKVRGCPQEKEQSFTIKPVGFKDSLTVQVTFDCDCACQAFAQPSSPRCNNGNGTFECGVCRCDQGWLGSMCECSEEDYRPSQQEECSPKEGQPICSQRGECLCGQCVCHSSDFGKITGKYCECDDFSCVRYKGEMCSGHGQCNCGDCVCDSDWTGYYCNCTTRTDTCMSTNGLLCSGRGNCECGSCVCVQPGSYGDTCEKCPTCPDACSFKKECVECKKFNRGTLHEENTCSRYCRDDIEQVKELTDTGKNAVNCTYKNEDDCVVRFQYYEDTSGRAVLYVVEEPECPKGPDILVVLLSVMGAILLIGLATLLIWKLLITIHDRKEFAKFEEERARAKWDTANNPLYKEATSTFTNITYRGT
